Measurements taken from article PMC5093147.

Biological target: T1, RsrR (Acidithiobacillus caldus MTH-04) (UniProt A4ZV27)
T1 sequence (looked up): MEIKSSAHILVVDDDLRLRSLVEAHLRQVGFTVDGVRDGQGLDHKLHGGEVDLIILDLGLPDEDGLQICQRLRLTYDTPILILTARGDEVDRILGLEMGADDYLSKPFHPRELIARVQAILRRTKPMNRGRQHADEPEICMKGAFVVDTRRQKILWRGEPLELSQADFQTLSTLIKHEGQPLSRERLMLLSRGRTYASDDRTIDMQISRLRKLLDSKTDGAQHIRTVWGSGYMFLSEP
Assay: EMSA
Details: 1 ug RsrR, 200 ng DNA, 1 ug salmon sperm DNA, 15 uL, 1x Binding Buffer (composition not given), room temperature 20 min + 20 min, 6.5% native PAGE in 0.25x TBE on ice, recombinant protein, residues 1-238, label: none (ethidium bromide stain), probe letters rebuilt from the primers and the genome

| Sequence | binding result |
| --- | --- |
| GATATATAATCTCCGAATCGCTAATACGTTGTCTAGGGGCATAACTACGCCGCGCTTCGGATAGTATACTCGGGGCCCATAGGAGACAATTGCATATAAGTTTTAGCTTATGTAACAAGTTGTACAATTTACGTGCGTTGAATTCCTGTCTCTGTGCCGATGTTACTCCATCTTGTACTCTCGGAAGGCAAATGGTTGCCGCCAGCCCATCCTCTGATGTGAAATGCAAAGAGCCCTTGTGCAATGCCATGATGCGATGACAAATCATCAACCCGATTCCCATCCCATGTCCGGGTTGCCGAGCAGACTCGCCACTGTTCATTCTGTACACAATCGGCGCT (double strand) [T360Δ19] | no binding |
| CGCAATATTCTGCGGGCGGTCTATGAAGCCGAGCGGCAGAACGAGATTCAGATCGTCGCCATCAACGATCTCGGCAGCCCGGAGACCAATGCCCATCTGACCCAGTACGACTCGGTACACGGCCGCTTTCCCTTCCCCGTCAGCGTCGAGGGGCAGGAGATGTTGGTGGGCAAGGATCGCGTGCGGGTTCTGGCGGAGCGGGATCCGAGCAAGCTGCCCTGGGGTGACCTGGGGGTGGACGTGGTGCTGGAGTGCACCGGCATCTTCACCACCCGCGAAAAGGCGTCGCTGCACATCCAGGGTGGCGCCAAGAAGGTCCTGATCTCCGCCCCGGCCAAGGATCCGGTGGACCTTACCGTAAATTGTAACACCTGTTACACCTGTTACAACTTGTTACATAAGCTAAAACTTATATGCA (double strand) [G360+58IRS] | binds |

Negatives hold for the conditions tested. Protein sequences can lack the tags named with them.
